The supplement of paper PMC6411743
± gives the standard deviation of the averaged measurements. Only a part is listed here, and it is no random draw.

By UniProt entry, the sequences of proteins in these tests, tags left out. Where a name states a change or a piece, a line headed by the entry shows the natural chain unless it says otherwise.
UniProt Q96A33: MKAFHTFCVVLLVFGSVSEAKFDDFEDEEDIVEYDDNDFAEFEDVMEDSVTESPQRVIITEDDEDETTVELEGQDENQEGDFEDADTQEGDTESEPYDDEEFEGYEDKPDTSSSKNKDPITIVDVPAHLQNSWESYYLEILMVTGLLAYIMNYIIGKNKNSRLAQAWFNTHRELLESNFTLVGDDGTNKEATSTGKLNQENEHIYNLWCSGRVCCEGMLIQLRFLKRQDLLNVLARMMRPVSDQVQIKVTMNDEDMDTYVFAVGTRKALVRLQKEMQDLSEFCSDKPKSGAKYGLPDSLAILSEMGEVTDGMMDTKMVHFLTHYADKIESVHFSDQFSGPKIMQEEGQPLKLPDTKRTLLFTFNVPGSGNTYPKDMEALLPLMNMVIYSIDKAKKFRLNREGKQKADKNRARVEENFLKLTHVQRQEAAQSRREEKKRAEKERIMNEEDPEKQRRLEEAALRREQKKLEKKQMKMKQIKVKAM
UniProt Q92574: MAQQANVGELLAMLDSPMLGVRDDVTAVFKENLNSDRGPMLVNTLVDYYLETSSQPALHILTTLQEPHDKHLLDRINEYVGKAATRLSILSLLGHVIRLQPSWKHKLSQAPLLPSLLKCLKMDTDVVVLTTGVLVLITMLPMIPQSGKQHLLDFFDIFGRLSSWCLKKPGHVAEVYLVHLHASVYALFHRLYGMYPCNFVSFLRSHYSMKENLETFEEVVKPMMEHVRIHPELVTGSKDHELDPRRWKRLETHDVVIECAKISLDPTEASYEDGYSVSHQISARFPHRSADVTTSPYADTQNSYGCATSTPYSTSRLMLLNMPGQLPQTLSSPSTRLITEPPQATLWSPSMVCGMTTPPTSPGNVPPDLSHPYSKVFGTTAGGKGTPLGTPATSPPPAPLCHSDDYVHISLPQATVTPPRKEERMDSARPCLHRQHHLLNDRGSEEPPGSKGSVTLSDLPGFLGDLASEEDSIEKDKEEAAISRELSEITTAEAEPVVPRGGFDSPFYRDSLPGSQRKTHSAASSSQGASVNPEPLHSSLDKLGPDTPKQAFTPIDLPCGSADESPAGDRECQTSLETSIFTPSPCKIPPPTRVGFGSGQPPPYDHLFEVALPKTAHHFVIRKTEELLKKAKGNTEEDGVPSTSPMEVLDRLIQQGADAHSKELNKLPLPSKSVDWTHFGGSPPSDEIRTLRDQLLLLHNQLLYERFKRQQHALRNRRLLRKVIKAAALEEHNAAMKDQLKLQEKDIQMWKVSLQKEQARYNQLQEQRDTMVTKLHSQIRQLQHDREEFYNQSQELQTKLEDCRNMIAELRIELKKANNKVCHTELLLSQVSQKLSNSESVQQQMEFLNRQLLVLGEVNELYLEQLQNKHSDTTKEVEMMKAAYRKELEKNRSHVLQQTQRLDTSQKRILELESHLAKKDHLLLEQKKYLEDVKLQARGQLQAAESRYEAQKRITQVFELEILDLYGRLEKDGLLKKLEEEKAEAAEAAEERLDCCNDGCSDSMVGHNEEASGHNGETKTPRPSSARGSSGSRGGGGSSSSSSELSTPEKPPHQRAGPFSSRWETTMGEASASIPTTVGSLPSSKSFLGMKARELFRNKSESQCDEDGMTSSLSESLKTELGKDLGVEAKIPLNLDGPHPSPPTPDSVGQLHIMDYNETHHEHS
UniProt Q8TF01: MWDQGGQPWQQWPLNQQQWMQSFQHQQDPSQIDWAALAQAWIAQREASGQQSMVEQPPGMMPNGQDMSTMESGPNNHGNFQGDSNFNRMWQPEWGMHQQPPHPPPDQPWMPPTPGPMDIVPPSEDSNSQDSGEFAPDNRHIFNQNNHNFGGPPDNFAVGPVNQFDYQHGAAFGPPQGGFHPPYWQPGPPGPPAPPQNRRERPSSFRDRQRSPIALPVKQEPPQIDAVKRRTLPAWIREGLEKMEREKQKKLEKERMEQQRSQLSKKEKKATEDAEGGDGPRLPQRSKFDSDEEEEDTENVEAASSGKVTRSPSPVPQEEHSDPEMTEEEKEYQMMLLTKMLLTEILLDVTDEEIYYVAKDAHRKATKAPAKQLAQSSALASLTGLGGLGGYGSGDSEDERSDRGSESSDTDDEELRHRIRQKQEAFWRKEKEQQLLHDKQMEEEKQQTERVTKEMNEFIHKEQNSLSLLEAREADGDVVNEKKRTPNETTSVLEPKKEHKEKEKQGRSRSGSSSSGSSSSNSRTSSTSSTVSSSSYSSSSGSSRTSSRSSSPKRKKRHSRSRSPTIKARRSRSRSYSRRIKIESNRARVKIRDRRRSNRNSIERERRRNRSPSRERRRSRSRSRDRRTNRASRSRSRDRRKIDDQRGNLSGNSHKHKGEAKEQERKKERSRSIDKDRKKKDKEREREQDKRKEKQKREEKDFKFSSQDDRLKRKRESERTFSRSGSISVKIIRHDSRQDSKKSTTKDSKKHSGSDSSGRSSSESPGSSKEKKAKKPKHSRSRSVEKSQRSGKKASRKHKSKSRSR
UniProt Q92562: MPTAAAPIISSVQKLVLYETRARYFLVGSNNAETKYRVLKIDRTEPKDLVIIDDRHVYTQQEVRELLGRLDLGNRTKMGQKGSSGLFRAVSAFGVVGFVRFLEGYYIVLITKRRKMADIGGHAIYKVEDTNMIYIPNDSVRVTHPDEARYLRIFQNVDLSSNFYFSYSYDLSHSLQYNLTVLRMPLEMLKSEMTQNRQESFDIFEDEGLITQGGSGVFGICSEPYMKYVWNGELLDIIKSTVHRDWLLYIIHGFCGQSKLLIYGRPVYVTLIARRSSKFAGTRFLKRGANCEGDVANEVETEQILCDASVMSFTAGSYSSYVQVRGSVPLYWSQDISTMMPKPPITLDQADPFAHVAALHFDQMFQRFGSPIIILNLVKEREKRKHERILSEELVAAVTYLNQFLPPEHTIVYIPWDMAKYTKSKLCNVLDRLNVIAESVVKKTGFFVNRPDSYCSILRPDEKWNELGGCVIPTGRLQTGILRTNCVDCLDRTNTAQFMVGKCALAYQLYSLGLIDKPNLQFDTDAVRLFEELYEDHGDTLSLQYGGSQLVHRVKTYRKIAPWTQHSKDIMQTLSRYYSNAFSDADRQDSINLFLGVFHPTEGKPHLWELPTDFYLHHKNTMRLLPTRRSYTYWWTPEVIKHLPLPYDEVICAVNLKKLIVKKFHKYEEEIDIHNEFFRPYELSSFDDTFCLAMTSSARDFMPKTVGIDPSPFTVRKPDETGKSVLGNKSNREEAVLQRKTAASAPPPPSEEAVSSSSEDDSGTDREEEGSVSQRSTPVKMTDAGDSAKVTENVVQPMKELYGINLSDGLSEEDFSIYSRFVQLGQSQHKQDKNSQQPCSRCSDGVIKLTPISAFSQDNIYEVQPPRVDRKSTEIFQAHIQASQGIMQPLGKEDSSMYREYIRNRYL
UniProt Q96AJ9: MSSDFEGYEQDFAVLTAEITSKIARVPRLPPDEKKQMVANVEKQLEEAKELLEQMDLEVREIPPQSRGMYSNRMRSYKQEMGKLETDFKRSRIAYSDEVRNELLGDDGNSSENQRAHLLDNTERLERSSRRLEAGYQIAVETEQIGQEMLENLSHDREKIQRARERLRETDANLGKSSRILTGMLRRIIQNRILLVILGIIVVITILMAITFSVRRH
UniProt Q8TEV9: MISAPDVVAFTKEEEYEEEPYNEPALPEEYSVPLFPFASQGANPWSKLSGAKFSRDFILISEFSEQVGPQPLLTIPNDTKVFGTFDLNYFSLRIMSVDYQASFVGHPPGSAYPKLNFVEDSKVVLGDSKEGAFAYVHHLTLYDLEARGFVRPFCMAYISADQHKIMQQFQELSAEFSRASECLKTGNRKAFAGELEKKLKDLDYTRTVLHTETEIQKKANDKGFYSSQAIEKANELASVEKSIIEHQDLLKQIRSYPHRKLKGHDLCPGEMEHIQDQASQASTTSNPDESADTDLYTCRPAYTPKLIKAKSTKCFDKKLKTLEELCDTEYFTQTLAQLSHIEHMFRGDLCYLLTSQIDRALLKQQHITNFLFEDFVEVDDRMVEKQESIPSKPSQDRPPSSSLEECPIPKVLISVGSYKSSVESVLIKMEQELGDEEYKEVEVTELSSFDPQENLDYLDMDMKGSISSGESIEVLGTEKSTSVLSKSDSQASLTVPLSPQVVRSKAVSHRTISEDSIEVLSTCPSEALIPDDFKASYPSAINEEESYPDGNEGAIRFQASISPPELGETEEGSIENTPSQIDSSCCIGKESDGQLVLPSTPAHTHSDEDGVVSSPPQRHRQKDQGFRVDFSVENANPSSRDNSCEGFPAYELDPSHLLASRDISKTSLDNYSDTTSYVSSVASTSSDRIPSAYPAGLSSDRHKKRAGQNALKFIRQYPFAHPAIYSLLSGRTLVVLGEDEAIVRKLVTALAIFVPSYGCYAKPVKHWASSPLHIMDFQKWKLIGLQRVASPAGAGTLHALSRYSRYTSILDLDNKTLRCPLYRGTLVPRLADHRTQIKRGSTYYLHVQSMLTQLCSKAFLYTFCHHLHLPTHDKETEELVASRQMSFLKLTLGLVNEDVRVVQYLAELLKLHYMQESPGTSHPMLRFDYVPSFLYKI
UniProt Q92973: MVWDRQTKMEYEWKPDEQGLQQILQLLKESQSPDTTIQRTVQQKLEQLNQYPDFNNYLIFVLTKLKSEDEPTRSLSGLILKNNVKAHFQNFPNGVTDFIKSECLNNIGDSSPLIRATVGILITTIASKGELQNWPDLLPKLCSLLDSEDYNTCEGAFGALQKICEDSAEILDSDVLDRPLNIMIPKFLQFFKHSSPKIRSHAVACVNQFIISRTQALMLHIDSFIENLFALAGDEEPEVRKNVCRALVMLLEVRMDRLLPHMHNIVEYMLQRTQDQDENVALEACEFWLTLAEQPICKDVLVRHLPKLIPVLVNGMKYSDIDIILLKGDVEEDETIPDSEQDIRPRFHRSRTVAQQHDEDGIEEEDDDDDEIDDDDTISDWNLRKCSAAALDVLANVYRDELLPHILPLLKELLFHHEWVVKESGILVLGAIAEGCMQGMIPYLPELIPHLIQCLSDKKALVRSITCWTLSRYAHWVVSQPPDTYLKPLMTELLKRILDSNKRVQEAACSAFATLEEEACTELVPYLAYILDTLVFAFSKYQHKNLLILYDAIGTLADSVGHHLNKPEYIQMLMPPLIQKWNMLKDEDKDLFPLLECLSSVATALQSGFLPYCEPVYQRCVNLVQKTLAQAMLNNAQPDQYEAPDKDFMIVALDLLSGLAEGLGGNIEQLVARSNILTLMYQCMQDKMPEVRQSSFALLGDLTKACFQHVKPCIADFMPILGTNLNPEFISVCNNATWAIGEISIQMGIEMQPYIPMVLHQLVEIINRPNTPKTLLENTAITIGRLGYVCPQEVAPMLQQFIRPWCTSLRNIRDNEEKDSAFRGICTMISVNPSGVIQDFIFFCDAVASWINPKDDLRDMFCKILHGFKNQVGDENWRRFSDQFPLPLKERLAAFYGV
UniProt Q8WWI5: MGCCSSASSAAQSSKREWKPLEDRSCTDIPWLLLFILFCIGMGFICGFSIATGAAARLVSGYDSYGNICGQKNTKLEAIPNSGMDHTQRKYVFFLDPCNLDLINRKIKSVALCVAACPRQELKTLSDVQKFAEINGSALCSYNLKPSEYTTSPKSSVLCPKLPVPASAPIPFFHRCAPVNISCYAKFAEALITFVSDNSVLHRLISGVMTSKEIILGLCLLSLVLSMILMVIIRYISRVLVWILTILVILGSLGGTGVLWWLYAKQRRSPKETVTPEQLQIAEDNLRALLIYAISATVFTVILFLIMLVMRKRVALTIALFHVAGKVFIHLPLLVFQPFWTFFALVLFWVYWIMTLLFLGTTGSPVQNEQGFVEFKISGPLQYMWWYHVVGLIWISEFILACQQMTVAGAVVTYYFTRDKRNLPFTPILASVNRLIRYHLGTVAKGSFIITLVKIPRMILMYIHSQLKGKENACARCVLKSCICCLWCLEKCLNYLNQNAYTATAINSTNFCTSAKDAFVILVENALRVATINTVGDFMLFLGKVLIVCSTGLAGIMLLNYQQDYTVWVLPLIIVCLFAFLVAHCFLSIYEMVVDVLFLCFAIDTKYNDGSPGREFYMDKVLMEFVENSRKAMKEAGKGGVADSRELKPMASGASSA
UniProt Q8WUA2: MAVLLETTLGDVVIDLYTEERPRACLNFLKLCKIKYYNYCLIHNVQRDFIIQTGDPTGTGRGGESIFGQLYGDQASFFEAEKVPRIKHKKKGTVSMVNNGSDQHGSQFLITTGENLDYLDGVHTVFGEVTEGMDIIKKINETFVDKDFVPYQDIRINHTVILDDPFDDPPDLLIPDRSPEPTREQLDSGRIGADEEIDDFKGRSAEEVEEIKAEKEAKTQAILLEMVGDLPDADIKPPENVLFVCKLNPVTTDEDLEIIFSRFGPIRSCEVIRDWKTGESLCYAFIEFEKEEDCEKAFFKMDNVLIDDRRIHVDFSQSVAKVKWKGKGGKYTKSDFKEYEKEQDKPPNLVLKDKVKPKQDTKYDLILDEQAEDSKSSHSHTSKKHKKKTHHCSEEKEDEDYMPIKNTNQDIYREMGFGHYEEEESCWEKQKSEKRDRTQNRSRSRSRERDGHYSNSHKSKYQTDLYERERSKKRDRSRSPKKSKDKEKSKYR

Compound: Nc1ncnc2c1ncn2[C@@H]1O[C@H](COP(=O)(O)OP(=O)(O)OP(=O)(O)O)[C@@H](O)[C@H]1O [adenosine triphosphate]
Test: NP40-soluble protein abundance relative to vehicle (solubility fold change) (ratio); higher = more soluble protein in presence of ATP
In short: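 Crude Jurkat lysate, prepared by Dounce homogenisation, was exposed to eight concentrations from 0.1 to 10 mM for 10 min at room temperature and then 3 min at 37 °C. Solubilisation used 0.8% NP40 with benzonase for 60 min at 4 °C, followed by ultracentrifugation and TMT labelling of the supernatant for LC-MS/MS. After vsn normalisation of intensities, each value is the fold change against the detergent-processed vehicle within each replicate, across three independent experiments.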

Row | Target | NP40-soluble protein abundance (concentration: 1mM) | NP40-soluble protein abundance (concentration: 2mM) | NP40-soluble protein abundance (concentration: 4mM) | NP40-soluble protein abundance (concentration: 6mM) | NP40-soluble protein abundance (concentration: 8mM) | NP40-soluble protein abundance (concentration: 10mM)
1 | CCDC47 (UniProt Q96A33) | 0.996 ± 0.035 | 0.989 ± 0.023 | 0.987 ± 0.0099 | 0.977 ± 0.023 | 1.01 ± 0.023 | 0.993 ± 0.025
2 | UniProt Q92574 and related entries | 1.01 ± 0.033 | 0.979 ± 0.029 | 1.02 ± 0.032 | 0.994 ± 0.027 | 0.939 ± 0.017 | 0.966 ± 0.065
3 | DNAJB14 (UniProt Q8TBM8) | 0.907 ± 0.031 | 0.914 ± 0.038 | 0.912 ± 0.026 | 0.958 ± 0.073 | 0.923 ± 0.033 | 0.94 ± 0.044
4 | UniProt Q8TF01 | 1.37 ± 0.11 | 1.28 ± 0.078 | 1.29 ± 0.066 | 1.34 ± 0.045 | 1.31 ± 0.034 | 1.35 ± 0.048
5 | FIG4 (UniProt Q92562) | 0.966 ± 0.012 | 0.951 ± 0.027 | 0.997 ± 0.11 | 0.838 ± 0.067 | 1.01 ± 0.08 | 0.988 ± 0.034
6 | UniProt Q96AJ9 and related entries | 0.944 ± 0.066 | 0.932 ± 0.04 | 0.962 ± 0.022 | 1 ± 0.053 | 0.954 ± 0.015 | 0.897 ± 0.1
7 | IP6K1 (UniProt Q92551) | 1.04 ± 0.16 | 1 ± 0.066 | 1.01 ± 0.073 | 0.999 ± 0.058 | 0.991 ± 0.062 | 0.993 ± 0.074
8 | SMCR8 (UniProt Q8TEV9) | 1 ± 0.019 | 0.959 ± 0.07 | 0.973 ± 0.041 | 0.977 ± 0.082 | 0.967 ± 0.037 | 0.971 ± 0.046
9 | UniProt Q92973 and related entries | 0.949 ± 0.05 | 0.989 ± 0.073 | 0.972 ± 0.034 | 0.876 ± 0.086 | 0.924 ± 0.049 | 0.974 ± 0.048
10 | SLC44A1 (UniProt Q8WWI5) | 0.957 ± 0.054 | 0.955 ± 0.032 | 0.935 ± 0.025 | 0.928 ± 0.06 | 0.944 ± 0.03 | 0.901 ± 0.026
11 | PPIL4 (UniProt Q8WUA2) | 0.97 ± 0.064 | 0.968 ± 0.07 | 0.995 ± 0.049 | 1.03 ± 0.042 | 1.02 ± 0.031 | 1.05 ± 0.052
12 | UniProt Q8TCE6 and related entries | 1.01 ± 0.041 | 0.998 ± 0.037 | 1.01 ± 0.051 | 1 ± 0.035 | 0.9792 ± 0.0079 | 0.998 ± 0.078
13 | PMM1 (UniProt Q92871) | 0.999 ± 0.034 | 0.972 ± 0.065 | 0.972 ± 0.029 | 0.976 ± 0.11 | 0.992 ± 0.024 | 0.956 ± 0.019
14 | NUP210 (UniProt Q8TEM1) | 1.02 ± 0.039 | 1.02 ± 0.029 | 0.993 ± 0.015 | 0.9978 ± 0.0014 | 1.02 ± 0.011 | 1.05 ± 0.022
15 | UniProt Q92619 | 1.06 ± 0.021 | 1.067 ± 0.0063 | 1.03 ± 0.013 | 1.079 ± 0.0064 | 1.03 ± 0.02 | 1.07 ± 0.031

Full records from above. Order of values: NP40-soluble protein abundance (concentration: 1mM) | NP40-soluble protein abundance (concentration: 2mM) | NP40-soluble protein abundance (concentration: 4mM) | NP40-soluble protein abundance (concentration: 6mM) | NP40-soluble protein abundance (concentration: 8mM) | NP40-soluble protein abundance (concentration: 10mM)
FIG4 (UniProt Q92562) is listed as 0.966 ± 0.012 | 0.951 ± 0.027 | 0.997 ± 0.11 | 0.838 ± 0.067 | 1.01 ± 0.08 | 0.988 ± 0.034
UniProt Q92574 and related entries is listed as 1.01 ± 0.033 | 0.979 ± 0.029 | 1.02 ± 0.032 | 0.994 ± 0.027 | 0.939 ± 0.017 | 0.966 ± 0.065
